This experiment can be described thus: qHTS Assay for Lipid Storage Modulators in Drosophila S3 Cells.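 As to cell number change: cells counted by Cell Tracker Red CMTPX staining in the red channel.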 The conditions noted are these: BODIPY lipid droplet fluorescence, 18-24 h; for cell number change: measured here: cell count max response, cells fed with added oleic acid. The procedure, abridged:
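Drosophila S3 cells loaded with oleic acid (400 uM, as added) and compounds at several concentrations; lipid droplets imaged by 488-nm laser-scanning cytometry, 500–530 nm intensity and object ratio to cell channel. Percent activity normalized to 20 uM Triacsin C.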
In general terms: In qHTS, concentration-response curves come from the screen itself.

Where [1] appears, read: measured here: cell number channel AC50, cells fed with added oleic acid.
The mark [2] stands for this setting: measured here: lipid fluorescence (Fed channel) AC50, cells fed with added oleic acid.

The other results are listed elsewhere or left out. Shown are side measurements of this screen, not its main read-out; they come without a call. Compounds called inactive in the main read-out are mostly missing here. The note in brackets gives the kind of curve behind each potency; many fits are weak.

For `Cc1cc2cc(CNC(=O)c3cccs3)ccc2n1C`, the cell number change was -52.6%. For the same compound, under setting [1], the AC50 is 11.6 µM [falling, partial curve, poor fit]. Also, the AC50 under setting [2] was 14.6 µM [falling, partial curve, poor fit].
`Cc1ccc(C(=O)N/C(=C/c2ccco2)C(=O)OCN2C(=O)c3ccccc3C2=O)cc1`: the cell number change amounted to 0.422%. The AC50 under setting [2] is 1.3 µM [rising, full curve, poor fit].
Regarding `NC(=O)CC(NC(=O)c1ccccc1)c1ccc(N2CCC(Cc3ccccc3)CC2)c([N+](=O)[O-])c1` (configuration not stated), the cell number change is -41.6%. Also, under setting [1], the AC50 is 25.9 µM [falling, single point].
Take `CC(C)c1nnc(NC(=O)C2CCN(C(=O)c3ccco3)CC2)s1`: the cell number change stood at 20.8%.
On to `COc1cc(C2/C(=C(\O)c3ccc4c(c3)CC(C)O4)C(=O)C(=O)N2CCN2CCOCC2)cc(OC)c1OC` (configuration not stated), for which the cell number change is -14.2%.
Turning to `O=C(Nc1ccccc1Oc1ccccc1)c1cccc([N+](=O)[O-])c1`, the cell number change came to 16.5%. Moreover, the AC50 under setting [1] is 0.103 µM [rising, full curve, poor fit].
In the case of `O=C(NC1CCCCCC1)c1cc2n(n1)C(C(F)(F)F)CC(c1ccco1)N2` (configuration not stated), the cell number change is -30%. Moreover, the AC50 under setting [1] was 5.8 µM [falling, full curve, poor fit].
In the case of `c1ccc(N2CCN(C3CC4CCC3C4)CC2)cc1` (configuration not stated), the cell number change is -25.4%.
Take `CCn1c(COc2cccc(C)c2)nnc1SCC(=O)CC(=O)Nc1ccccc1OC`: the cell number change is -0.619%. Under setting [2], the AC50 was 0.366 µM [rising, full curve, poor fit].
With `O=C(CSc1cccc[n+]1[O-])NCC1CCCCC1`, the cell number change was 21.5%. Also, under setting [1], the AC50 is 1.84 µM [rising, partial curve, poor fit]. Under setting [2], the AC50 is 3.26 µM [rising, single point].
With `COc1ccc(OCC(=O)OC2CCN(C)CC2)cc1`, the cell number change was 5.32%.
On to `COc1ccc(NS(=O)(=O)c2ccc(OC)c3ccccc23)cn1`, for which the cell number change is -21.5%. The AC50 under setting [2] was 16.4 µM [falling, single point].
Consider `O=C(CCl)Nc1cccc(-c2cnc3ccccc3n2)c1`, for which the cell number change was -84%. For the same compound, the AC50 under setting [1] was 29.1 µM [falling, single point].
On to `Nn1c(SCc2ccc([N+](=O)[O-])cc2)nc2ccccc2c1=O`, for which the cell number change was -21.9%. Further, the AC50 under setting [1] was 2.31 µM [falling, full curve, poor fit]. Further, the AC50 under setting [2] is 4.11 µM [falling, full curve, poor fit].
Consider `CC(C)COc1ccc(CNC(=S)NCc2ccccc2)cc1`, for which the cell number change was -17.4%. Also, the AC50 under setting [1] is 2.91 µM [rising, partial curve]. Besides, the AC50 under setting [2] was 6.51 µM [rising, single point].
In the case of `Nc1c(C(=O)NCc2ccc3c(c2)OCO3)nnn1Cc1cccc(F)c1`, the cell number change stood at 58.2%. Also, the AC50 under setting [1] is 1.84 µM [rising, partial curve, poor fit]. Moreover, under setting [2], the AC50 is 0.58 µM [rising, full curve].
For `CN1C(=O)Cc2cc(S(=O)(=O)N3CCN(c4ccccc4F)CC3)ccc21`, the cell number change amounted to 21.4%. Further, the AC50 under setting [2] is 4.11 µM [falling, single point].
Consider `COc1ccccc1N1CC(C(=O)Nc2nnc(SCC(=O)N3CCOCC3)s2)CC1=O` (configuration not stated), for which the cell number change was found to be 17.1%.
`CCOC(=O)N1CCN(c2c(N3CCc4ccccc4C3)c(=O)c2=O)CC1`: the AC50 under setting [2] is 2.06 µM [rising, partial curve].
`CC(C)Cn1c(-c2ccco2)nc2c(c(=O)c3ccccc3n2C)c1=O`: the cell number change was -21.8%. The AC50 under setting [1] is 6.51 µM [rising, single point]. The AC50 under setting [2] is 0.461 µM [rising, full curve].
With `CCOCCn1c(CN2CCN(CCO)CC2)nc2c1c(=O)n(C)c(=O)n2C`, the cell number change is 14.4%. The AC50 under setting [2] is 29.1 µM [rising, single point].
For the compound `COc1ccccc1CNC(=O)COC(=O)Cc1ccc(Cl)cc1`, the cell number change is -10.5%. The AC50 under setting [1] is 0.103 µM [falling, full curve, poor fit]. Besides, the AC50 under setting [2] is 0.13 µM [falling, full curve, poor fit].
On to `CCc1sc(C(=O)Nc2nccs2)cc1C`, for which the cell number change amounted to 12.6%.
For the compound `COC(=O)c1ccc(C(=O)Nc2nnc(-c3cccnc3)o2)cc1`, the cell number change is 8.27%. Also, under setting [2], the AC50 is 0.82 µM [rising, full curve, poor fit].
`CC(C)(C)OC(=O)NCCCCCc1nnc(SCc2c(F)cccc2Cl)o1`: the cell number change worked out at 17.7%. Besides, under setting [1], the AC50 is 0.103 µM [rising, full curve, poor fit].
With `O=C(O)Cc1ccc(N=Nc2c(O)c(C(=O)O)cc3ccccc23)cc1`, the cell number change amounted to 4.1%. The AC50 under setting [1] was 0.164 µM [falling, single point].
Regarding `O=C(NCc1ccco1)c1ccc2c(c1)C(=O)c1ccccc1-2`, the cell number change is -43.9%. In addition, under setting [1], the AC50 is 32.6 µM [falling, single point]. In addition, the AC50 under setting [2] is 0.517 µM [rising, single point].
In the case of `Cc1noc(C)c1CSCC(=O)Nc1nc2ccc(F)cc2s1`, the cell number change is -7.74%.
As for `COc1ccc(NC(=O)NNC(=O)c2cc3ccccc3cc2O)cc1`, the cell number change came out at 1.74%.
For the compound `Cn1c(=O)[nH]c(=O)c2c1nc(N1CCCCCC1)n2CCOc1ccccc1`, the cell number change was 31.4%. In addition, the AC50 under setting [1] was 32.6 µM [rising, single point].
Take `Sc1oc(-c2ccccc2)cc1C=Nc1ccccc1`: the cell number change is -33.8%. Further, the AC50 under setting [1] is 8.2 µM [falling, partial curve]. Moreover, the AC50 under setting [2] was 29.1 µM [falling, partial curve].
As to `COc1cc(CNC(=O)c2ccc(Cn3nc(C)c(Cl)c3C)o2)cc(OC)c1`, the cell number change was -13%. Further, the AC50 under setting [2] was 6.51 µM [rising, single point].
Regarding `Cn1c(=O)n(CCO)c(=O)c2c1nc(Br)n2Cc1ccccc1`, the cell number change amounted to 14%. Also, the AC50 under setting [1] is 3.66 µM [rising, partial curve, poor fit]. For the same compound, the AC50 under setting [2] was 0.651 µM [falling, single point].
As to `O=Cc1ccc(-c2ccc(Cl)cc2Cl)[nH]1`, the cell number change was -8.97%. The AC50 under setting [2] was 0.0651 µM [falling, full curve, poor fit].
Turning to `Cc1cc(NC(=O)CSc2nccn2-c2cccc(C)c2C)no1`, the AC50 under setting [2] is 1.3 µM [falling, partial curve, poor fit].
On to `Cc1ccc(S(=O)(=O)N2CCN(C(=O)COC(=O)c3ccccc3Cl)CC2)c(C)c1`, for which the cell number change was found to be 15.7%. Moreover, the AC50 under setting [1] is 3.66 µM [falling, single point]. Besides, the AC50 under setting [2] is 0.731 µM [rising, partial curve, poor fit].
For `Cc1ccccc1N1CCN(C(=O)NCc2cccc(Cl)c2)CC1`, the cell number change was 7.98%. The AC50 under setting [2] was 0.206 µM [falling, single point].
For `CCN(CC)S(=O)(=O)c1ccc(Oc2ccccc2)c(N)c1`, the cell number change stood at 34.8%.
Still for that read-out and setting: then `COc1ccccc1-c1cc(C(=O)N2CCN(S(=O)(=O)c3ccc(C)cc3)CC2)[nH]n1`, with -18.4%.
As for `COc1ccc(OC)c(CN2CCC(Cc3ccccc3)CC2)c1`, the cell number change is -15%. Further, the AC50 under setting [2] is 29.1 µM [falling, single point].
`CC1(C)CC(NC(=O)Cc2ccccc2[N+](=O)[O-])CC(C)(C)N1`: the cell number change was -8.24%. In addition, the AC50 under setting [2] is 29.1 µM [falling, single point].
Turning to `Cn1c2c(c(=O)n(C)c1=O)CN(CCN1CCNCC1)CN2`, the cell number change is -31.1%. In addition, the AC50 under setting [2] is 4.11 µM [falling, single point].
As for `N#CCCN(Cc1cccnc1)C(=O)c1ccc(S(=O)(=O)N2CCOCC2)cc1`, the cell number change turned out to be 8.44%. In addition, under setting [2], the AC50 was 32.6 µM [rising, single point].
Regarding `CC(C)CNC(=O)CN1c2cccc3cccc(c23)S1(=O)=O`, the cell number change amounted to 16.2%. Also, the AC50 under setting [2] is 25.9 µM [rising, single point].
On to `CCOCCCNC(=O)c1c(N)n(-c2ccc3c(c2)OCO3)c2nc3ccccc3nc12`, for which the cell number change stood at 15.5%. Further, under setting [1], the AC50 is 3.26 µM [rising, partial curve, poor fit].
For `Cc1cc(C)nc(N(C#N)Cc2ccc(Br)cc2)n1`, the cell number change is -41.4%. Also, under setting [1], the AC50 is 18.4 µM [falling, single point].
Regarding `CN(c1cccc(NC(=O)c2ccc(N(C)S(=O)(=O)c3ccccc3)cc2)c1)S(C)(=O)=O`, the cell number change was -22.2%.
`O=C1C2CCCN2C(=O)N1CCCCN1CCN(c2cccc(C(F)(F)F)c2)CC1` (configuration not stated): the cell number change amounted to 16.8%. Under setting [2], the AC50 was 0.58 µM [falling, single point].
With `COc1cc(C(=O)Nc2ccc(Nc3ccccc3)cc2)cc(OC)c1OC`, the cell number change is -49.7%. Moreover, the concentration at half-maximal activity (AC50) under setting [1] was 18.4 µM [falling, single point].
Take `Cc1ccccc1NC(=O)c1ccc(CN(c2ccccc2)S(=O)(=O)c2ccccc2)cc1`: the cell number change worked out at 9.28%.
Take `Cc1cc(C)cc(N(CC(=O)NC2CCCC2)C(=O)CCC(=O)Nc2cc(C)on2)c1`: the cell number change came out at 5.46%. For the same compound, the AC50 under setting [2] is 29.1 µM [rising, single point].
For `Clc1ccc(Oc2cnns2)cc1Cl`, the cell number change was 41.1%. Moreover, the AC50 under setting [1] is 23.1 µM [rising, single point].
As to `Cc1onc(-c2ccccc2Cl)c1C(=O)Nc1cccc2cccnc12`, the cell number change was -10.4%.
Regarding `Cc1cnc(CNC(=O)c2ccc3oc(C(C)C)nc3c2)[nH]1`, the cell number change is -4.25%. The AC50 under setting [1] is 0.00461 µM [falling, full curve, poor fit].
Take `COc1ccccc1CN(C)CC(=O)NC(=O)NC1CCCCC1`: the cell number change was -18.8%. Also, the AC50 under setting [2] was 3.26 µM [rising, full curve, poor fit].
For `Cc1ccc(NCC(=O)N2CCN(S(=O)(=O)c3ccccc3)CC2)cc1F`, under setting [2], the AC50 is 0.58 µM [falling, single point].
Take `Cc1ccc(O)c(NC(=S)NC(=O)Cc2ccc(Cl)cc2)c1`: the cell number change is -8.39%.
As for `COc1ccc(CN(Cc2cc3cc4c(cc3[nH]c2=O)OCO4)C(=O)NC2CCCCC2)cc1`, the cell number change amounted to 41.4%. For the same compound, under setting [1], the AC50 was 0.184 µM [rising, full curve, poor fit]. Besides, the AC50 under setting [2] is 0.326 µM [rising, full curve].
As for `Cc1ccc(NC(=O)CCSc2ccccc2)c(C)c1`, the cell number change was -46.2%. Besides, the AC50 under setting [1] is 6.51 µM [falling, full curve]. Also, the AC50 under setting [2] is 7.31 µM [falling, partial curve].
For `COc1ccccc1NC(=O)Nc1cccc(C)n1`, the cell number change was found to be 29.8%. Besides, the AC50 under setting [2] was 29.1 µM [rising, single point].
For the compound `CCOC(=O)C1CCCN(C(=S)Nc2ccc(OC)cc2)C1` (configuration not stated), the cell number change came out at 16.8%.

As a reminder, the AC50 is the midpoint of the concentration-response curve, whichever way the signal moves.

(Values after PubChem BioAssay AID2685 (National Center for Advancing Translational Sciences (NCATS), 2010).)
